Reference: the supplement of paper PMC12819154, “High-throughput peptide-centric local stability assay extends protein–ligand identification to membrane proteins, tissues and bacteria” (Nature Structural & Molecular Biology, 2025)
The other results are listed elsewhere or left out. Most values lie at the level of the controls, where differences are scatter.

Amino acid sequences for entries named in this document (tags omitted). A change or cut given only in a name is not applied to a line headed by its entry.
UniProt P17257: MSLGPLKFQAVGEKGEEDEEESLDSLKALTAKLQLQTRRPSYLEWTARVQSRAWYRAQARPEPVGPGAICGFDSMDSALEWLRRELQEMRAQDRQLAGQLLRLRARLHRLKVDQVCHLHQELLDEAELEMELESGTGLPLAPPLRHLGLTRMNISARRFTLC
UniProt P23949: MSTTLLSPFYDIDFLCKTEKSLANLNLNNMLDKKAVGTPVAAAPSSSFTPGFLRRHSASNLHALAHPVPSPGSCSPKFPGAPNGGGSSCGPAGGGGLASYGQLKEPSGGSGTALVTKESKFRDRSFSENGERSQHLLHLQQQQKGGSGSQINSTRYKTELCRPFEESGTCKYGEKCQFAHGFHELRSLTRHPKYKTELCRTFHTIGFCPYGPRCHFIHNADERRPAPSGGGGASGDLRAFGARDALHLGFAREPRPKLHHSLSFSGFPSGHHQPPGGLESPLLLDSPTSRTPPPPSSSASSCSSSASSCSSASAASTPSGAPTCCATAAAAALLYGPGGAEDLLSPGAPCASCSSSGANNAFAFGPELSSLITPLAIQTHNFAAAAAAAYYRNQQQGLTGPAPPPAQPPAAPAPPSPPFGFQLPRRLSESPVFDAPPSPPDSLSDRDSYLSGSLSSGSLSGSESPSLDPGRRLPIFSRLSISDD
UniProt P35276: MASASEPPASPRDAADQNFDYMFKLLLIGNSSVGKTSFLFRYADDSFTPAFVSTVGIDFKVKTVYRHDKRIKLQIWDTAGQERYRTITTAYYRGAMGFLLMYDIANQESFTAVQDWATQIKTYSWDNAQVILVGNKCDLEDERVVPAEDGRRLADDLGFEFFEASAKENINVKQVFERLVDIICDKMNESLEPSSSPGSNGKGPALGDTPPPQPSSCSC
UniProt P26618: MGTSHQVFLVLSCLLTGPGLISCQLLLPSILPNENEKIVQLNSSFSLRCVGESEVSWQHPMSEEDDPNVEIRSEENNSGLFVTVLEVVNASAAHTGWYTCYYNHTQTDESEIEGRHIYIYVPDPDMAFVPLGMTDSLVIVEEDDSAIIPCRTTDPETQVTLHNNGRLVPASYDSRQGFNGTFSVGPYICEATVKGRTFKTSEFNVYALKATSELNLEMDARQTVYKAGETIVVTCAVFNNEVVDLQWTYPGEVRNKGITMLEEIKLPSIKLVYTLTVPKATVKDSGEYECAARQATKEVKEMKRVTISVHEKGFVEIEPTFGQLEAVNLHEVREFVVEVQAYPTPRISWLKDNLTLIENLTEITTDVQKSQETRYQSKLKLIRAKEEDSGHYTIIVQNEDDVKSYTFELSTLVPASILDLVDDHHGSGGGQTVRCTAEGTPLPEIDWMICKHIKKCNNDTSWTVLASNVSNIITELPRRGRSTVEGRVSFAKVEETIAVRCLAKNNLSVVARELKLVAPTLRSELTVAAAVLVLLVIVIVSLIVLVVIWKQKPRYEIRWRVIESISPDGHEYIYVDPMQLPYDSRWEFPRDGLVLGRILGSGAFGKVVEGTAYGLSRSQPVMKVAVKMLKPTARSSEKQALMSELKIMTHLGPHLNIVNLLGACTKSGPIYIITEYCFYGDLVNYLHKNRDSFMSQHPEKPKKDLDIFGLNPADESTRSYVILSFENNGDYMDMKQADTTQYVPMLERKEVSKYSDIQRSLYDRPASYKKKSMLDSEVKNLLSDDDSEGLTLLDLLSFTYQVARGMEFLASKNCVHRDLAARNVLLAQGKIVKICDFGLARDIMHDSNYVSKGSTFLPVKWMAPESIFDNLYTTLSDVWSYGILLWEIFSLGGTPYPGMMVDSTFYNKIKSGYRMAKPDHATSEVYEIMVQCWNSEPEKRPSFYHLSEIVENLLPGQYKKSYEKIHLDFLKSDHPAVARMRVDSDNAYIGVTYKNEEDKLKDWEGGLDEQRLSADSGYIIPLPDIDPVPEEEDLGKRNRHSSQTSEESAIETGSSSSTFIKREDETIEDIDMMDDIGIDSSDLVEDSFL
UniProt P30115: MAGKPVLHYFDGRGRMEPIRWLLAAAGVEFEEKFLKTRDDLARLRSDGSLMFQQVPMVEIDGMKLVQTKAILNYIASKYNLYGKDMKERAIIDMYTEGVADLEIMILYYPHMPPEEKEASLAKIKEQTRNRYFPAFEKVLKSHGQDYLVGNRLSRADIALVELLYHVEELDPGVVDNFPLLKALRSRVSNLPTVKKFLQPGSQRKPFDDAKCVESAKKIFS
UniProt P16675: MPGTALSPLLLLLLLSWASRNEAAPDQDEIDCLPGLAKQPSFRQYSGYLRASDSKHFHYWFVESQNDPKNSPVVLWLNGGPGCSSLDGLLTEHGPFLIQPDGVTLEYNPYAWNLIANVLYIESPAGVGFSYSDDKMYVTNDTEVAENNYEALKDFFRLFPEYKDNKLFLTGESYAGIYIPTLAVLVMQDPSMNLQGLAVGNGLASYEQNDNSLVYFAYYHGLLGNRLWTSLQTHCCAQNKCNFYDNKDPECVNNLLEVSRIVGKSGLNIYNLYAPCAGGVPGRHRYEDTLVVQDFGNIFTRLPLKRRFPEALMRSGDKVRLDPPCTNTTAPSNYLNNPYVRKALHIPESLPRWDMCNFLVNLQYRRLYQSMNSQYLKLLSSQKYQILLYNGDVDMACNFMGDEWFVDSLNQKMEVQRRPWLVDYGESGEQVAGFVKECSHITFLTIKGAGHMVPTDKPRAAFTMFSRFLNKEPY
UniProt P19096: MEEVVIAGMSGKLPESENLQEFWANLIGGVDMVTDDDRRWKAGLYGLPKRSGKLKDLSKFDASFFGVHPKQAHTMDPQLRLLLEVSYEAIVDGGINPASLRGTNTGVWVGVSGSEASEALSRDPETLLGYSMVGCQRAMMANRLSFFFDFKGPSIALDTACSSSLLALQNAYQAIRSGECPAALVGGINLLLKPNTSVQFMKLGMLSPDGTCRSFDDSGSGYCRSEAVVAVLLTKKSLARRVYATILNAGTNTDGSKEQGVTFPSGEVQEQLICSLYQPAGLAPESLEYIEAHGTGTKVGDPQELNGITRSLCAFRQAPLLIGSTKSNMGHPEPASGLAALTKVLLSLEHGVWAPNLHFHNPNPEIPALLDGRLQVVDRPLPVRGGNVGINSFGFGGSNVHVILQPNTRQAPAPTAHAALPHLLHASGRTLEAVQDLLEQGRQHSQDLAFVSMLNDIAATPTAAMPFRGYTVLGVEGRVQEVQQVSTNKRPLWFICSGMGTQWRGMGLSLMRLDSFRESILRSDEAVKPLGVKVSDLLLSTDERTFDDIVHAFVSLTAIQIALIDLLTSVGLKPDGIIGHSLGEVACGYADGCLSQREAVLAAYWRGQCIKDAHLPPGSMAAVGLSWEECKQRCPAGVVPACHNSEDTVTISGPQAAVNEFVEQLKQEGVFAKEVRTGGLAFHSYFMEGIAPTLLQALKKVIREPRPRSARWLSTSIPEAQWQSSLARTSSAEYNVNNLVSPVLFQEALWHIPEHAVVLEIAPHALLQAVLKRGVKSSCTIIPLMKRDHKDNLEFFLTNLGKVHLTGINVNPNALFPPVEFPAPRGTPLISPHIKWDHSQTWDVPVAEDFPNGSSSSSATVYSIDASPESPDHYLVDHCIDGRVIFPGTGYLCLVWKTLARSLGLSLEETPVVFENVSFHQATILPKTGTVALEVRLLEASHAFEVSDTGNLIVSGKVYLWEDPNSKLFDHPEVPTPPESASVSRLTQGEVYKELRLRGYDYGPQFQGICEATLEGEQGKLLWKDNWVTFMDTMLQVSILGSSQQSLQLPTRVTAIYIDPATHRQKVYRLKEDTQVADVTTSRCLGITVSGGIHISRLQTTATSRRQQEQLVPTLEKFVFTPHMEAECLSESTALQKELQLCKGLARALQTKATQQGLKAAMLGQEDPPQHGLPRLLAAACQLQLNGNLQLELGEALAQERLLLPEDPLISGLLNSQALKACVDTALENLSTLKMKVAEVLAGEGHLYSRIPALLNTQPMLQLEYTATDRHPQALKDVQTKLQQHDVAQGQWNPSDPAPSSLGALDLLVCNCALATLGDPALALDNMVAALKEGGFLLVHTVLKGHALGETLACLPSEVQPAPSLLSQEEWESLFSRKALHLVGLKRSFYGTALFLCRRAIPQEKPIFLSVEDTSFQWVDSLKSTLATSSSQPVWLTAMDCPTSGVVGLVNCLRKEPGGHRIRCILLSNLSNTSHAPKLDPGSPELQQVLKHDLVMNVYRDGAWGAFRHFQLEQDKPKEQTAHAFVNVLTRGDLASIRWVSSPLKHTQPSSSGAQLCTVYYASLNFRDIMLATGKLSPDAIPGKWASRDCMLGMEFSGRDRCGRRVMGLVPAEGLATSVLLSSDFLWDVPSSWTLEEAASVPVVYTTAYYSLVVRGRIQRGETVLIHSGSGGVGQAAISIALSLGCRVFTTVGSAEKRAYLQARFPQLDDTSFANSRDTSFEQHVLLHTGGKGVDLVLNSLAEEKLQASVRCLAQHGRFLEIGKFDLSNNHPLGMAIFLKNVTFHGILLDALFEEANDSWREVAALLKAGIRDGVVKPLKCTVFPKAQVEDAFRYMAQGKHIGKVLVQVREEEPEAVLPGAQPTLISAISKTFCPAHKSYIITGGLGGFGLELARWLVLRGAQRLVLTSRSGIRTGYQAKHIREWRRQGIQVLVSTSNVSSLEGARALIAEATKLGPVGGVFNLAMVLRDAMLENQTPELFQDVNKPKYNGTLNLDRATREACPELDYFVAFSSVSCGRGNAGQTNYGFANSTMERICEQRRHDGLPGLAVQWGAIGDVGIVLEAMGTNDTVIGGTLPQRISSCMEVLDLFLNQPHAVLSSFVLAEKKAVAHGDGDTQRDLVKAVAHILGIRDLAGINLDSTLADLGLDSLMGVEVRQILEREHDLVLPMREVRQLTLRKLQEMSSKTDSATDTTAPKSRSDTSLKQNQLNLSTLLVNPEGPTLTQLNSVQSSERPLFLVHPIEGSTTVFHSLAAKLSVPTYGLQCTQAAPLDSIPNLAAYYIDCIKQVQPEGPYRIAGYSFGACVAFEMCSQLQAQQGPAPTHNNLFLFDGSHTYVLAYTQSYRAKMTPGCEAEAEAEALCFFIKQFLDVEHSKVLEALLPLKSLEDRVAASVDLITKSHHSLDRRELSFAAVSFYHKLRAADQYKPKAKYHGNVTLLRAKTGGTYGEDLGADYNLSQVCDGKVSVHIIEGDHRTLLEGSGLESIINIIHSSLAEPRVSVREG
UniProt P18826: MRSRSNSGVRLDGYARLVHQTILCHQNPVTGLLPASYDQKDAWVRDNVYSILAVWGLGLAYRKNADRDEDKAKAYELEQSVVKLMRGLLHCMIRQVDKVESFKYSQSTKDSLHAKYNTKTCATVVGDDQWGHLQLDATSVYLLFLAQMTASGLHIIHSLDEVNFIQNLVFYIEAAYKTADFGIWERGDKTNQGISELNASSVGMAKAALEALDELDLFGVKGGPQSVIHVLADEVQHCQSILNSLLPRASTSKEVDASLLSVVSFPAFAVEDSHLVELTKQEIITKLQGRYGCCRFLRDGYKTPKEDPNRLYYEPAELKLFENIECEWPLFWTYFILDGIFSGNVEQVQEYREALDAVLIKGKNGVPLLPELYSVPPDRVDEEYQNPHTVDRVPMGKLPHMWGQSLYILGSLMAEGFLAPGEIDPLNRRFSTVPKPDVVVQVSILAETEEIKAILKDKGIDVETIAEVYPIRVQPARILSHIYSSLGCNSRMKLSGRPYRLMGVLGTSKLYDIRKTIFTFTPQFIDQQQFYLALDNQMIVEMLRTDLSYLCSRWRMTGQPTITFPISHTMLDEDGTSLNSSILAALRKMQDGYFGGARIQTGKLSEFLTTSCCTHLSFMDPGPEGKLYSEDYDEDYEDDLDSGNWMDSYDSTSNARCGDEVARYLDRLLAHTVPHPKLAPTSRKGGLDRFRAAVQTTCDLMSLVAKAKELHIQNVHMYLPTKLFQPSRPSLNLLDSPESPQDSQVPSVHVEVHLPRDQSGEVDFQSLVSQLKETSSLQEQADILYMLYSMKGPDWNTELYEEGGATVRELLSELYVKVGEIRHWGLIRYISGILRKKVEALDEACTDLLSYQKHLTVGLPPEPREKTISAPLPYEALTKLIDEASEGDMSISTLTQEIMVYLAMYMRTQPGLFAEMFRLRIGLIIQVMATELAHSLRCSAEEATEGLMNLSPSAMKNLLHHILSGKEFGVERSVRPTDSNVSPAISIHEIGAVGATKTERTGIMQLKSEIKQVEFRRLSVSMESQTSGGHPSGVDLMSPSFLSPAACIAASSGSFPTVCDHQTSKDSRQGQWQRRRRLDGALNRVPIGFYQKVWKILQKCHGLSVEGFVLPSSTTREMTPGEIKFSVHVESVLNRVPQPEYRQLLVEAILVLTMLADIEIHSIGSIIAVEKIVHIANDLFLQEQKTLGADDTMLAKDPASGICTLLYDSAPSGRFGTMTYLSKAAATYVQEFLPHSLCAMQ

Compound: CN[C@@H]1C[C@H]2O[C@@](C)([C@@H]1OC)n1c3ccccc3c3c4c(c5c6ccccc6n2c5c31)C(=O)NC4 [staurosporine]
Assay: log2 fold change of tryptic peptide abundance, ligand vs vehicle (limited proteolysis) (log2 ratio); higher = more trypsin-susceptible (destabilized)
Conditions: ligand concentration: 20 uM; sample: mouse liver crude lysate; replicate design: treated separately

Row | Target | log2 fold change
1 | UniProt P17257 (peptide sequence: QLAGQLLR, peptide start residue: 95) | -0.106
2 | UniProt P23949 (peptide sequence: SFSENGER, peptide start residue: 125) | -0.397
3 | UniProt P35276 (peptide sequence: TITTAYYR, peptide start residue: 72) | -0.0745
4 | UniProt P26618 (peptide sequence: KKSMLDSEVK, peptide start residue: 770) | -0.0964
5 | UniProt P30115 (peptide sequence: AILNYIASK, peptide start residue: 70) | 0.167
6 | UniProt P16675 (peptide sequence: GAGHMVPTDKPR, peptide start residue: 448) | 0.155
7 | UniProt P19096 (peptide sequence: SSCTIIPLMK, peptide start residue: 777) | -0.526
8 | UniProt P18826 (peptide sequence: VPIGFYQK, peptide start residue: 1085) | 0.203
